Data on one substance can be found in article PMC7820495.

Protein sequences, listed by entry. Tags and fused reporters are not part of them. Lines headed by an entry give the natural chain unless they say otherwise; changes in a name come on top.
UniProt Q8IQC6: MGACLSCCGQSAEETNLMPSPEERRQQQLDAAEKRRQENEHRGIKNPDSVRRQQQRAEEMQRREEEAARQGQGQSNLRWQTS
UniProt Q7KN62: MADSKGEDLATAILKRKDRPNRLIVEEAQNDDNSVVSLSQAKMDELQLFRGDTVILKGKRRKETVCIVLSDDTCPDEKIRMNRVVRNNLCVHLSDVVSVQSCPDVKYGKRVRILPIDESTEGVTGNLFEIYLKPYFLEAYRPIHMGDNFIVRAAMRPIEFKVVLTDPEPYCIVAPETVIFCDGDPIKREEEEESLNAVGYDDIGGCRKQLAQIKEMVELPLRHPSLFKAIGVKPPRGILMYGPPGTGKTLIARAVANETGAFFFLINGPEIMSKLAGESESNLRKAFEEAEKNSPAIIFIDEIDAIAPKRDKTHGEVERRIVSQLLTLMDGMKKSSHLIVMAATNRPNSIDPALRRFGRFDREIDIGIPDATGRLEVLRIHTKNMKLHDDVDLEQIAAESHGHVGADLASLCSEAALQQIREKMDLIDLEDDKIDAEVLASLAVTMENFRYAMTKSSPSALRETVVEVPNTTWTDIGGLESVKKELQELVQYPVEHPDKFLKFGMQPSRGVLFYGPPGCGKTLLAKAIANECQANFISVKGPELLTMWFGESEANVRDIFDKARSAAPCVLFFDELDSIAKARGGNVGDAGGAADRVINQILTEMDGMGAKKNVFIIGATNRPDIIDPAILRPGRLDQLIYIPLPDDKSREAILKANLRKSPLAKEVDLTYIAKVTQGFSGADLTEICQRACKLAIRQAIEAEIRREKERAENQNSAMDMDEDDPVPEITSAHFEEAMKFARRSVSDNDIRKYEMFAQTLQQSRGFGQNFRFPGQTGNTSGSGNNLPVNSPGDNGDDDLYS

Results are given in words; binding and its absence hold for the method and conditions named. In cells and extracts the contact can be indirect. Binding can be weak; no strength is given.

The target of this test is GST-SVIP (Drosophila SVIP, CG32039) (Drosophila) (UniProt Q8IQC6). The test can be described thus: pull-down; recombinant GST-SVIP left on beads, incubated with VCP-sfGFP protein lysates from whole flies in NP40 buffer for 2 h, washed 3x, immunoblot with anti-VCP and anti-GFP; only the target purified.

Take “VCP^WT-sfGFP (Drosophila VCP tagged with sfGFP at the endogenous locus) (from UniProt Q7KN62 1-801)”: the binding result is given as “binds”.
